The values below are quoted from earlier work in US11826369B2, “Targeting the TLK1/NEK1 axis in prostate cancer” (Board of Supervisors of Louisiana State University and …, priority 2019, dated 2023).

The structures appear in SMILES notation.

The target of the data set is recombinant human dopamine receptors (D1 and D3). To be noted: competitive studies with recombinant receptors; cited from earlier work.

By IC50 is commonly meant the point on the concentration scale where inhibition reaches its midpoint. In the case of `CSc1ccc2c(c1)N(CCC1CCCCN1C)c1ccccc1S2` (stereo not shown) [THD, Thioridazine], the IC50 was 0.02 µM.
